Test results as given in patent US7252957B2, “Identification of etiology of autism” (Immunosciences Lab., Inc., priority 2004, dated 2007).

Assay: ELISA for serum IgG antibodies against antigens, peptides, enzymes, receptors in patients with autism and controls
Design: species or system human
Settings: cut-off of 2 standard deviations above the mean of controls; for Percent Elevation of IgG Antibody Levels, Patients / Percent Elevation of IgG Antibody Levels, Controls: Table 5; for Percent Elevation of IgG Antibody Levels, Patients / Approximate Percent Elevation of IgG Antibody Levels, Patients: children with autism; for Approximate Percent Elevation of IgG Antibody Levels, Patients / Approximate Percent Elevation of IgG Antibody Levels, Controls: Table 6, neural antigens

Row | Molecule | Percent Elevation of IgG Antibody Levels, Patients | Percent Elevation of IgG Antibody Levels, Controls | Approximate Percent Elevation of IgG Antibody Levels, Patients | Approximate Percent Elevation of IgG Antibody Levels, Controls
1 | CC[C@H](C)[C@H](NC(=O)[C@H](CC(=O)O)NC(=O)[C@H](CC(C)C)NC(=O)[C@H](Cc1c[nH]cn1)NC(=O)[C@@H]1CSSC[C@H](N)C(=O)N[C@@H](CO)C(=O)N[C@H]2CSSC[C@H](NC(=O)[C@H](CCC(=O)O)NC(=O)[C@H](CCCCN)NC(=O)[C@H](CC(=O)O)NC(=O)[C@H](CCSC)NC(=O)[C@H](CC(C)C)NC(=O)[C@H](CO)NC(=O)[C@H](CO)NC2=O)C(=O)N[C@@H](C(C)C)C(=O)N[C@@H](Cc2ccc(O)cc2)C(=O)N[C@@H](Cc2ccccc2)C(=O)N1)C(=O)N[C@H](C(=O)N[C@@H](Cc1c[nH]c2ccccc12)C(=O)O)[C@@H](C)CC [Endothelin] | 35% | 2% | – | –
2 | CC[C@H](C)[C@H](NC(=O)[C@@H]1CCCN1C(=O)[C@@H](NC(=O)[C@@H](N)Cc1ccccc1)C(C)C)C(=O)N[C@@H](Cc1ccccc1)C(=O)N[C@H](C(=O)N[C@@H](Cc1ccc(O)cc1)C(=O)NCC(=O)N[C@@H](CCC(=O)O)C(=O)N[C@@H](CC(C)C)C(=O)N[C@@H](CCC(N)=O)C(=O)N[C@@H](CCCNC(=N)N)C(=O)N[C@@H](CCSC)C(=O)N[C@@H](CCC(N)=O)C(=O)N[C@@H](CCC(=O)O)C(=O)N[C@@H](CCCCN)C(=O)N[C@@H](CCC(=O)O)C(=O)N[C@@H](CCCNC(=N)N)C(=O)N[C@@H](CC(N)=O)C(=O)N[C@@H](CCCCN)C(=O)NCC(=O)N[C@@H](CCC(N)=O)C(=O)O)[C@@H](C)O [Motilin] | 52% | 14% | – | –
3 | CC[C@H](C)[C@@H]1NC(=O)[C@H](Cc2ccc(O)cc2)NC(=O)[C@@H](N)CSSC[C@@H](C(=O)N2CCC[C@H]2C(=O)N[C@@H](CC(C)C)C(=O)NCC(N)=O)NC(=O)[C@H](CC(N)=O)NC(=O)[C@H](CCC(N)=O)NC1=O [Oxytocin] | 32% | 6% | – | –
4 | NCCc1c[nH]c2ccc(O)cc12 [Serotonin] | 30% | 6% | – | –
5 | Amyloid β | 23% | 1% | – | –
6 | B-Endorphin | 36% | 5% | – | –
7 | CD69 (MECEKNLYWICNKPYK) | 36% | 6% | – | –
8 | Calreticullin (EQFLDGDGWTSRWIESGLQTSQ; synthetically prepared peptide sequence) | 30% | 1% | – | –
9 | Casein | 42% | 10% | – | –
10 | Chymotrypsin | 48% | 8% | – | –
11 | DPPI | 56% | 14% | – | –
12 | Pepsin | 38% | 4% | – | –
13 | Secretin | 52% | 12% | – | –
14 | Tropomyosin | 36% | 8% | – | –
15 | Trypsin | 44% | 6% | – | –
16 | Vasoactive Intestinal peptide | 48% | 8% | – | –
17 | streptokinase [SK] | 18% | 2% | – | –
18 | MOG (protein, UniProt Q16653 30-247, looked up) Myelin-oligodendrocyte …: GQFRVIGPRHPIRALVGDEVELPCRISPGKNATGMEVGWYRPPFSRVVHLYRNGKDQDGDQAPEYRGRTELLKDAIGEGKVTLRIRNVRFSDEGGFTCFFRDHSYQEEAAMELKVEDPFYWVSPGVLVLLAVLPVLLLQITVGLIFLCLQYRLRGKLRAEIENLHRTFDPHFLRVPCWKITLFVIVPVLGPLVALIICYNWLHRRLAGQFLEELRNPF | 48% | 11% | 43% | 11%
19 | CD13 (protein, UniProt P15144 2-967, looked up) Aminopeptidase N: AKGFYISKSLGILGILLGVAAVCTIIALSVVYSQEKNKNANSSPVASTTPSASATTNPASATTLDQSKAWNRYRLPNTLKPDSYRVTLRPYLTPNDRGLYVFKGSSTVRFTCKEATDVIIIHSKKLNYTLSQGHRVVLRGVGGSQPPDIDKTELVEPTEYLVVHLKGSLVKDSQYEMDSEFEGELADDLAGFYRSEYMEGNVRKVVATTQMQAADARKSFPCFDEPAMKAEFNITLIHPKDLTALSNMLPKGPSTPLPEDPNWNVTEFHTTPKMSTYLLAFIVSEFDYVEKQASNGVLIRIWARPSAIAAGHGDYALNVTGPILNFFAGHYDTPYPLPKSDQIGLPDFNAGAMENWGLVTYRENSLLFDPLSSSSSNKERVVTVIAHELAHQWFGNLVTIEWWNDLWLNEGFASYVEYLGADYAEPTWNLKDLMVLNDVYRVMAVDALASSHPLSTPASEINTPAQISELFDAISYSKGASVLRMLSSFLSEDVFKQGLASYLHTFAYQNTIYLNLWDHLQEAVNNRSIQLPTTVRDIMNRWTLQMGFPVITVDTSTGTLSQEHFLLDPDSNVTRPSEFNYVWIVPITSIRDGRQQQDYWLIDVRAQNDLFSTSGNEWVLLNLNVTGYYRVNYDEENWRKIQTQLQRDHSAIPVINRAQIINDAFNLASAHKVPVTLALNNTLFLIEERQYMPWEAALSSLSYFKLMFDRSEVYGPMKNYLKKQVTPLFIHFRNNTNNWREIPENLMDQYSEVNAISTACSNGVPECEEMVSGLFKQWMENPNNNPIHPNLRSTVYCNAIAQGGEEEWDFAWEQFRNATLVNEADKLRAALACSKELWILNRYLSYTLNPDLIRKQDATSTIISITNNVIGQGLVWDFVQSNWKKLFNDYGGGSFSFSNLIQAVTRRFSTEYELQQLEQFKKDNEETGFGSGTRALEQALEKTKANIKWVKENKEVVLQWFTENSK | 40% | 8% | – | –
20 | MAG (protein, UniProt P20916 20-626, looked up) Myelin-associated glycoprotein: GHWGAWMPSSISAFEGTCVSIPCRFDFPDELRPAVVHGVWYFNSPYPKNYPPVVFKSRTQVVHESFQGRSRLLGDLGLRNCTLLLSNVSPELGGKYYFRGDLGGYNQYTFSEHSVLDIVNTPNIVVPPEVVAGTEVEVSCMVPDNCPELRPELSWLGHEGLGEPAVLGRLREDEGTWVQVSLLHFVPTREANGHRLGCQASFPNTTLQFEGYASMDVKYPPVIVEMNSSVEAIEGSHVSLLCGADSNPPPLLTWMRDGTVLREAVAESLLLELEEVTPAEDGVYACLAENAYGQDNRTVGLSVMYAPWKPTVNGTMVAVEGETVSILCSTQSNPDPILTIFKEKQILSTVIYESELQLELPAVSPEDDGEYWCVAENQYGQRATAFNLSVEFAPVLLLESHCAAARDTVQCLCVVKSNPEPSVAFELPSRNVTVNESEREFVYSERSGLVLTSILTLRGQAQAPPRVICTARNLYGAKSLELPFQGAHRLMWAKIGPVGAVVAFAILIAIVCYITQTRRKKNVTESPSFSAGDNPPVLFSSDFRISGAPEKYESERRLGSERRLLGLRGEPPELDLSYSHSDLGKRPTKDSYTLTEELAEYAEIRVK | 49% | 8% | 49% | 9%
21 | Transaldolase (protein, UniProt P37837 1-337, looked up) Transaldolase: MSSSPVKRQRMESALDQLKQFTTVVADTGDFHAIDEYKPQDATTNPSLILAAAQMPAYQELVEEAIAYGRKLGGSQEDQIKNAIDKLFVLFGAEILKKIPGRVSTEVDARLSFDKDAMVARARRLIELYKEAGISKDRILIKLSSTWEGIQAGKELEEQHGIHCNMTLLFSFAQAVACAEAGVTLISPFVGRILDWHVANTDKKSYEPLEDPGVKSVTKIYNYYKKFSYKTIVMGASFRNTGEIKALAGCDFLTISPKLLGELLQDNAKLVPVLSAKAAQASDLEKIHLDEKSFRWLHNEDQMAVEKLSDGIRKFAADAVKLERMLTERMFNAENGK | 29% | 4% | 33% | 4%
22 | Fibrillarin (protein, UniProt P22087 1-321, looked up) rRNA 2'-O-methyltransferase …: MKPGFSPRGGGFGGRGGFGDRGGRGGRGGFGGGRGRGGGFRGRGRGGGGGGGGGGGGGRGGGGFHSGGNRGRGRGGKRGNQSGKNVMVEPHRHEGVFICRGKEDALVTKNLVPGESVYGEKRVSISEGDDKIEYRAWNPFRSKLAAAILGGVDQIHIKPGAKVLYLGAASGTTVSHVSDIVGPDGLVYAVEFSHRSGRDLINLAKKRTNIIPVIEDARHPHKYRMLIAMVDVIFADVAQPDQTRIVALNAHTFLRNGGHFVISIKANCIDSTASAEAVFASEVKKMQQENMKPQEQLTLEPYERDHAVVVGVYRPPPKVKN | 44% | 2% | – | –
23 | PLP (protein, UniProt P60201 2-277, looked up) Myelin proteolipid protein: GLLECCARCLVGAPFASLVATGLCFFGVALFCGCGHEALTGTEKLIETYFSKNYQDYEYLINVIHAFQYVIYGTASFFFLYGALLLAEGFYTTGAVRQIFGDYKTTICGKGLSATVTGGQKGRGSRGQHQAHSLERVCHCLGKWLGHPDKFVGITYALTVVWLLVFACSAVPVYIYFNTWTTCQSIAFPSKTSASIGSLCADARMYGVLPWNAFPGKVCGSNLLSICKTAEFQMTFHLFIAAFVGAAATLVSLLTFMIAATYNFAVLKLMGRGTKF | 46% | 7% | – | –
24 | MBP (protein, UniProt P02686 1-304, looked up) Myelin basic protein: MGNHAGKRELNAEKASTNSETNRGESEKKRNLGELSRTTSEDNEVFGEADANQNNGTSSQDTAVTDSKRTADPKNAWQDAHPADPGSRPHLIRLFSRDAPGREDNTFKDRPSESDELQTIQEDSAATSESLDVMASQKRPSQRHGSKYLATASTMDHARHGFLPRHRDTGILDSIGRFFGGDRGAPKRGSGKDSHHPARTAHYGSLPQKSHGRTQDENPVVHFFKNIVTPRTPPPSQGKGRGLSLSRFSWGAEGQRPGFGYGGRASDYKSAHKGFKGVDAQGTLSKIFKLGGRDSRSGSPMARR | 58% | 15% | 57% | 14%
